Hit rate of the full screen: of about 320,000 compounds, about 22,000 (6.9%) were called active. Inconclusive means that the source gave no clear call. Such entries were picked first, then a sample of the others. The call rests on the fitted dose curve; in most records, active means well fitted inhibition curve with a large enough effect; inconclusive means small, poorly fitted or top-dose-only effect, or another doubt; inactive means no such curve, though single readings can be large or run the other way. Where the call is inconclusive, the potency comes from a doubtful curve fit.
test: Primary qHTS for delayed death inhibitors of the malarial parasite plastid, 96 hour incubation; details: P. falciparum luciferase reporter growth; series mostly up to 28.7 µM
How it was run: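 Luminescence readout: decreased luciferase signal marks inhibited growth of reporter-expressing P. falciparum in infected red cells (2% hematocrit, 0.05% parasitemia final), exposed to compound two generations (96 h, 37 C, 5% CO2).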
Potency means the concentration at half of the fitted maximal effect.

Row | Compound | Potency
1 | Cc1ccc(NC(=S)c2ccncc2)cc1 | inactive
2 | CCOC(=O)C1(Cc2ccccc2)CCN(Cc2ccon2)CC1 | inconclusive: 10.4 µM [inhibitor, partial curve, poor fit]
3 | CN1CCN(C(=O)C2CC(=O)N(c3ccc(F)c(Cl)c3)C2)CC1 (stereo unspecified) | inconclusive: 18.5 µM [inhibitor, single point]
4 | CCCCN(CC)Cc1c(O)ccc2c(-c3ccccc3)cc(=O)oc12 | inconclusive: 4.15 µM [inhibitor, partial curve]
5 | CCCn1c(SC(C)C(=O)O)nc2ccccc21 (stereo unspecified) | inactive
6 | O=S(=O)(c1ccc(Cl)cc1)n1ccc(-c2cccc(OCc3c(F)cccc3Cl)c2)n1 | inconclusive: 2.33 µM [inhibitor, partial curve, poor fit]
7 | Cc1cc(NC(=O)c2c(Cl)cccc2Cl)no1 | inactive
8 | O=S(=O)(NNC(=S)NCC1CCCO1)c1cc(Cl)ccc1Cl (stereo unspecified) | inconclusive: 18.5 µM [inhibitor, single point]
9 | CCOC(=O)C1=C(C)NC2=C(C(=O)CCC2)C1c1cccs1 (stereo unspecified) | inconclusive: 5.22 µM [inhibitor, single point]
10 | Cc1cccc(C(=O)N2CCC(c3nc(-c4ccc(S(=O)(=O)N5CCOCC5)cc4)no3)CC2)c1 | inconclusive: 18.5 µM [inhibitor, single point]
11 | CC(C)Cc1nc(Cl)c(C#N)c2c1CCCC2 | inconclusive: 11.7 µM [inhibitor, single point]
12 | COc1cc2c(c(OC)c1OC)-c1c(cc3c(c1O)OCO3)C[C@@H](C)[C@@H](C)C2 | active: 10.4 µM
13 | CCCCn1c(O)c(/C=C2\C=NN=C2c2ccccc2)sc1=S | inconclusive: 14.7 µM [inhibitor, partial curve, poor fit]
14 | Cc1c(CCOC(=O)c2ccc(N3CCOCC3)c([N+](=O)[O-])c2)sc[n+]1CC#N | inconclusive: 18.5 µM [inhibitor, single point]
15 | Cc1cc(S(=O)(=O)NCc2ccccc2)ccc1OCC(=O)NCc1ccncc1 | inconclusive: 11.7 µM [inhibitor, partial curve, poor fit]
16 | Cn1nnnc1SCC(=O)Nc1ccc(C(=O)N2CCN(Cc3ccccc3F)CC2)cc1 | inactive
17 | Cc1ncc([N+](=O)[O-])n1CC(=O)N/N=C/c1ccc(F)cc1 | inconclusive: 11.7 µM [inhibitor, partial curve, poor fit]
18 | COC(=O)c1c[nH]n2c(=O)c(Cc3ccc(F)cc3Cl)c(C)nc12 | active: 1.47 µM
19 | COc1ccc(S(=O)(=O)N(C)CC(=O)NCc2ccccn2)cc1 | inactive
20 | CNC(=S)N1N=C(c2ccc(OC)cc2)CC1c1ccccc1Cl (stereo unspecified) | inconclusive: 9.28 µM [inhibitor, partial curve, poor fit]
21 | CCc1cc2c(SCC(=O)O)ncnc2s1 | inactive
22 | O=C(NCC1COc2ccccc2O1)c1ccc(Cl)c(S(=O)(=O)N2CCOCC2)c1 (stereo unspecified) | active: 13.1 µM

Looked up above:
For Potency, O=C(NCC1COc2ccccc2O1)c1ccc(Cl)c(S(=O)(=O)N2CCOCC2)c1 (stereo unspecified) shows active: 13.1 µM
For Potency, COC(=O)c1c[nH]n2c(=O)c(Cc3ccc(F)cc3Cl)c(C)nc12 shows active: 1.47 µM
For Potency, CCCn1c(SC(C)C(=O)O)nc2ccccc21 (stereo unspecified) shows inactive
For Potency, CN1CCN(C(=O)C2CC(=O)N(c3ccc(F)c(Cl)c3)C2)CC1 (stereo unspecified) shows inconclusive: 18.5 µM [inhibitor, single point]
For Potency, CNC(=S)N1N=C(c2ccc(OC)cc2)CC1c1ccccc1Cl (stereo unspecified) shows inconclusive: 9.28 µM [inhibitor, partial curve, poor fit]
For Potency, O=S(=O)(NNC(=S)NCC1CCCO1)c1cc(Cl)ccc1Cl (stereo unspecified) shows inconclusive: 18.5 µM [inhibitor, single point]

The results go on:

Row | Compound | Potency
23 | CCSc1nc2c(cnn2-c2ccc(C)cc2)c(=O)[nH]1 | inconclusive: 9.28 µM [inhibitor, partial curve]
24 | O=C(NCc1ccco1)C(c1ccccc1)N(Cc1ccccc1)C(=O)Cn1nnc2ccccc21 (stereo unspecified) | active: 9.28 µM
25 | O=C(COC(=O)c1ccc(-c2ccc([N+](=O)[O-])cc2)o1)NC(=O)NC1CCCCC1 | inactive
26 | Cc1cc(OCc2cc(C(=O)N(C)CC3CCOCC3)no2)cc(C)c1Cl | inconclusive: 0.0023 µM [inhibitor, full curve, poor fit]
27 | Cn1c(CN2CCCC2)nc2cc(NS(=O)(=O)c3ccc(Cl)cc3)ccc21 | inconclusive: 5.22 µM [inhibitor, partial curve, poor fit]
28 | CCOC(=O)c1nnn(CC(=O)NC(=O)Nc2ccccc2)c1C(=O)OCC | inconclusive: 0.233 µM [inhibitor, partial curve, poor fit]
29 | Cc1ccc(C(=O)N2CCN(CCNC(=O)C(=O)NCc3ccc(Cl)cc3)CC2)cc1 | inconclusive: 1.04 µM [inhibitor, full curve, poor fit]
30 | CC(C)c1nc2oc3c(NCC4CCCO4)ncnc3c2c2c1COC(C)(C)C2 (stereo unspecified) | inactive
31 | CCCNC(=O)C(Cc1ccc(C(F)(F)F)cc1)NC(=O)c1ccc2ccccc2n1 (stereo unspecified) | inconclusive: 18.5 µM [inhibitor, single point]
32 | Cc1ccccc1/C=C/c1nc2ccccc2c(=O)n1CCc1ccccc1 | inactive
33 | CCC(CC)NC(=O)COn1nnc2ccc(S(=O)(=O)N3CCOCC3)cc21 | inactive
34 | Cc1cc(Cl)ccc1NC(=S)N1CCOCC1 | inconclusive: 3.29 µM [inhibitor, partial curve, poor fit]
35 | CCN1CCN(CCC(=O)Nc2cc(C)ccc2C)CC1 | inconclusive: 18.5 µM [inhibitor, single point]
36 | Cc1cc(C)c(O)c(-c2cc(C(=O)NCc3ccccc3)[nH]n2)c1 | inconclusive: 18.5 µM [inhibitor, single point]
37 | Cc1cccc(Nc2nc(NCC3CCCO3)nc(N)c2[N+](=O)[O-])c1 (stereo unspecified) | inconclusive: 13.1 µM [inhibitor, single point]
38 | CCOc1ccc(N(CC(=O)Nc2ccc3c(c2)OCCO3)S(=O)(=O)c2c(C)noc2C)cc1 | active: 10.4 µM
39 | CN(Cc1ccccc1N1CCCC1)C(=O)c1cc2cc(Cl)ccc2o1 | inconclusive: 16.5 µM [inhibitor, partial curve, poor fit]
40 | CC(=O)N1[C@@H]2CC3C4CC=C5C[C@@H](O)CC[C@]5(C)C4CC[C@]3(C)[C@@]21C(C)=O (stereo partly specified) | inconclusive: 9.28 µM [inhibitor, partial curve]
41 | CCC1OC(=O)CC(O)C(C)[C@@H](O[C@@H]2OC(C)[C@H](O[C@@H]3C[C@@](C)(O)C(O)C(C)O3)C(N(C)C)C2O)[C@H](CC=O)CC(C)C(=O)/C=C/C(C)=C/[C@@H]1COC1OC(C)C(O)C(OC)[C@@H]1OC (stereo partly specified) | active: 0.757 µM
42 | CCN(CC)S(=O)(=O)c1ccc(NC(=O)c2cc(-c3ccccc3)nc3ccccc23)cc1 | inconclusive: 4.65 µM [inhibitor, partial curve]
43 | Cc1ccc(S(=O)(=O)N2CCOCC2)cc1NC(=O)CSc1nc(N)cc(N)n1 | inactive
44 | Cc1cccc(N2C(=O)N3[C@H](c4ccc(Br)cc4)[C@@H]4C(=O)N(C(C)(C)C)C(=O)[C@@H]4[C@]3(C)C2=O)c1 | inconclusive: 9.28 µM [inhibitor, single point]

Row | Compound | Potency
45 | COc1ccc(-n2c(=O)[nH]c3c(C(N)=O)nc(C4CCCCC4)nc32)cc1 | inconclusive: 18.5 µM [inhibitor, single point]
46 | C=CCn1cc(-c2ccccc2)cc(C#N)c1=O | inconclusive: 18.5 µM [inhibitor, single point]
47 | CCO[C@H]1OC(C(=O)Nc2ccccc2)=C[C@@H](C)[C@@H]1CCCO | inactive
48 | COc1ccccc1NC(=O)c1cc2c(CO)cnc(C)c2oc1=Nc1cccc(C(N)=O)c1 | inconclusive: 10.4 µM [inhibitor, single point]
49 | CC(C)(C)c1cc(C(=O)N/N=C/c2ccc([N+](=O)[O-])s2)n[nH]1 | active: 1.65 µM
50 | COCCCN1C(=O)c2ccc(C(=O)Nc3ccccc3Cl)cc2C1=O | inconclusive: 0.0657 µM [inhibitor, full curve, poor fit]
51 | COc1cccc(N2CC(C(=O)Nc3c(C(N)=O)oc4ccccc34)CC2=O)c1 (stereo unspecified) | inactive
52 | CC(=O)c1cc(OC(=O)N2CCOCC2)ccc1OC(=O)N1CCOCC1 | inconclusive: 11.7 µM [inhibitor, single point]
53 | Cc1ccc(NC(=O)CSc2nnc(Cc3ccccc3)c(=O)[nH]2)c(C)c1 | inactive
54 | COc1ccc(CCNC(=O)CN(c2ccccc2)S(C)(=O)=O)cc1 | inconclusive: 14.7 µM [inhibitor, single point]
55 | c1ccc(-c2nc(-c3cccnc3)cs2)cc1 | inconclusive: 18.5 µM [inhibitor, single point]
56 | Cc1c(CCOC(=O)CC23CC4CC(CC(C4)C2)C3)sc[n+]1CC(=O)c1ccc(Br)cc1 | inconclusive: 14.7 µM [inhibitor, partial curve, poor fit]
57 | COc1ccc(CCNC(=O)Cn2nc([N+](=O)[O-])c(Br)c2C)cc1OC | inconclusive: 18.5 µM [inhibitor, single point]
58 | COc1cccc(C(=O)Nc2ccc(NC(=O)C3CC3)cn2)c1 | active: 8.28 µM
59 | CC1CCc2c(C(=O)Nc3ccc(N4CCOCC4)cc3)csc2C1 (stereo unspecified) | inconclusive: 1.65 µM [inhibitor, partial curve]
60 | O=C(Nc1ccccc1C(F)(F)F)C1CC(=O)N(c2ccccc2F)C1 (stereo unspecified) | inconclusive: 9.28 µM [inhibitor, single point]
61 | CC1=C(C(=O)OC(C)C)C(C)NC(=O)N1 (stereo unspecified) | active: 9.28 µM
62 | COC(=O)Nc1snnc1C | inconclusive: 3.7 µM [inhibitor, single point]
63 | CCOc1ccc(/C=C/C(=O)OCC(=O)NCCc2ccc(OCC)c(OCC)c2)cc1OC | inconclusive: 11.7 µM [inhibitor, partial curve]
64 | COc1cc(NC(=O)CN2CCCCC2)c(C)cc1[N+](=O)[O-] | inconclusive: 13.1 µM [inhibitor, single point]
65 | CC(=O)N1CCN(S(=O)(=O)c2cccc(C(=O)Nc3ccc(OC(F)F)cc3)c2)CC1 | inconclusive: 9.28 µM [inhibitor, single point]
66 | Cc1ccc(N2CC(C(=O)NCCS(=O)(=O)N3CCN(c4ccccc4F)CC3)CC2=O)cc1 (stereo unspecified) | inconclusive: 18.5 µM [inhibitor, single point]

From PubChem BioAssay AID504834 (National Center for Advancing Translational Sciences (NCATS), 2011)
